Measured values from patent publication US20100036088A1, “Selective poly-N-substituted glycine antibiotics” (priority 2008, published 2010).
“And” between values parts separate entries of the source, which are not always exact repeats. Equal values may be shown once. Read-outs that look alike come from different tables or passages of the source. Numbered stars: 1 amine (or outer) side, 2 acyl side, 3 side chain; on linkers, the order of the positions; unused ones are H or OH. Square brackets hold non-standard residues; d marks the D form. Peptide text beside a SMILES is read from it. X1 = CC(C)[C@H](C)N(CC(=O)[*:2])[*:1]; X2 = CCC[C@H](C)N(CC(=O)[*:2])[*:1]; Nspe = C[C@H](NCC(=O)O)c1ccccc1; Nphe = O=C(O)CNCc1ccccc1; Nlys = NCCCCNCC(=O)O

Experiments:
Format in all cases: cell-based
[1] = test system: Staphylococcus aureus NRS100 (COL); conditions: Table 7B; 10% hemolytic dose / MIC
Protocol: (§1) Antibacterial assays. MICs were determined according to CLSI M7-A6 protocols in a 96-well microtiter plate. In test wells, 50 μL bacterial inoculum (5×10^5 CFU/ml) in Mueller-Hinton broth (MHB) was added to 50 μL peptoid solution in MHB (prepared by 1:2 serial dilutions). Positive controls contained 50 μL inoculum and 50 μL MHB without peptoid. […] MIC values reported were reproducible between three independent experimental replicates, each consisting of two parallel trials. Broad-spectrum antimicrobial susceptibility testing was performed against BSL2 pathogens by Nova Biologicals, Inc. (Conroe, Tex.).
(§2) Broad-spectrum antibacterial assays. MICs of compounds were determined by microdilution procedure in Mueller-Hinton broth (MHB) in accordance with CLSI M7-A6 protocols in a manner similar to that described for the screen antibacterial assays. Inoculated microtiter plates were incubated at 35° C. for 24 hours prior to the result being recorded. Four ATCC strains that were used as standards are recommended by CLSI: Pseudomonas aeruginosa ATCC 27853, Escherichia coli ATCC 25922, Staphylococcus aureus ATCC 29213 and Enterococcus faecalis ATCC 29212. Other strains from the ATCC collection include Proteus vulgaris ATCC 49132, Proteus mirabilis ATCC 35659, Klebsiella pneumoniae ATCC 33495, Enterobacter aerogenes ATCC 35029 and Serratia marcescens ATCC 13880. S. aureus NRS100 (COL) is a well characterized methicillian-resistant S. aureus (MRSA) strain. The strains S. aureus VAN1 and S. aureus VAN2, vancomycin-resistant MRSA strains that were isolated in Michigan and Pennsylvania, were the first vancomycin-resistant strains clinically isolated. S. aureus NRS119 and S. aureus NRS120 are linezolid-resistant isolates from the Network on Antimicrobial Resistance in S. aureus (NARSA) collection. E. faecalis 99 and E. faecium 106 are vancomycin-resistant enterococcal strains.

[2] = test system: Enterobacter aerogenes ATCC 35029; conditions: Table 7B; 10% hemolytic dose / MIC
Protocol: as §1, §2

[3] = test system: Staphylococcus aureus NRS120; conditions: Table 7B; 10% hemolytic dose / MIC
Protocol: as §1, §2

[4] = test system: Pseudomonas aeruginosa ATCC 27853; conditions: Table 7B; 10% hemolytic dose / MIC
Protocol: as §1, §2

[5] = test system: Staphylococcus aureus NRS119; conditions: Table 7B; 10% hemolytic dose / MIC
Protocol: as §1, §2

[6] = test system: Staphylococcus aureus VAN1; conditions: Table 7B; 10% hemolytic dose / MIC
Protocol: as §1, §2

[7] = test system: Enterococcus faecalis ATCC 29212; conditions: Table 7B; 10% hemolytic dose / MIC
Protocol: as §1, §2

[8] = test system: Staphylococcus aureus ATCC 29213; conditions: Table 7B; 10% hemolytic dose / MIC
Protocol: as §1, §2

[9] = test system: Enterococcus faecalis 99; conditions: Table 7B; 10% hemolytic dose / MIC
Protocol: as §1, §2

[10] = test system: Proteus vulgaris ATCC 49132; conditions: Table 7B; 10% hemolytic dose / MIC
Protocol: as §1, §2

[11] = test system: Enterococcus faecium 106; conditions: Table 7B; 10% hemolytic dose / MIC
Protocol: as §1, §2

[12] = test system: Escherichia coli ATCC 25922; conditions: Table 7B; 10% hemolytic dose / MIC
Protocol: as §1, §2

[13] = test system: Klebsiella pneumoniae ATCC 33495; conditions: Table 7B; 10% hemolytic dose / MIC
Protocol: as §1, §2

[14] = test system: Proteus mirabilis ATCC 35659; conditions: Table 7B; 10% hemolytic dose / MIC
Protocol: as §1, §2

[15] = test system: Serratia marcescens ATCC 13880; conditions: Table 7B; 10% hemolytic dose / MIC
Protocol: as §1, §2

[16] = test system: Staphylococcus aureus VAN2; conditions: Table 7B; 10% hemolytic dose / MIC
Protocol: as §1, §2

[17] = test system: E. coli (ATCC 35218); conditions: Table 6, 10% hemolytic dose / MIC E. coli
Protocol: (§3) Whereas the preceding generation of molecules was designed to elucidate structure function relationships of specific molecular parameters (chirality, length, hydrophobicity, etc.), another generation compounds were designed explicitly to explore effects on selectivity. Antimicrobial activity of these compounds was tested against bacterial strains E. coli (ATTC 35218) and B. subtilis (ATTC 6633) in cation-adjusted MHB using the microdilution protocols previously described. The sequences, antimicrobial activities, hemolytic activities, and metabolic inhibitory concentrations against NIH 3T3 mouse fibroblast cells are summarized in Table 3 and the rationale of their design is described below.
(§4) The potencies of all compounds were determined against representative Gram-negative (E. coli ATCC 35218) and Gram-positive (B. subtilis ATCC 6633) biosafety level 1 (BSL1) organisms. In addition to hemolytic activity, the conventional measure of toxicity to mammalian cells, the effect of each ampetoid on NIH 3T3 mouse fibroblast cells was determined using the MTS tetrazolium salt-based calorimetric assay. While hemolysis measures the degree to which erythrocytes are lysed, the MTS assay indirectly quantifies the extent to which cellular metabolic activity is inhibited.
(§5) Screening antibacterial assays. MICs were determined in 96-well microtiter plates in accordance with CLSI M7-A6 protocols. Peptoid solutions with 50 μL total volume were prepared using 2:1 serial dilutions. 50 μL of bacteria inoculum (1×10^6 CFU/mL) prepared in cation-adjusted Mueller-Hinton broth (CAMHB) was added to test wells. Control wells contained 100 μL MHB (no growth) or 50 μL inoculums with 50 μL MHB with no peptoid. […] Reported values were reproducible over three experiments, each containing two parallel trials.

[18] = test system: B. subtilis (ATCC 6633); conditions: Table 6; 10% hemolytic dose / MIC B. subtilis
Protocol: as §3, §4, §5

[19] = test system: E. coli JM109; conditions: Table 1
Description: An initial set of 15 ampetoid analogs was synthesized to determine whether peptoids are affected by structural and sequence modifications in a manner consistent with AMP activities. The designs for ampetoids in this library were derived from two antibacterial and selective amphipathic dodecamers, 1 and 2. Peptoid 1 [H-(Nlys-Nspe-Nspe)4—NH2] is composed of 2/3 Nspe, the peptoid analog of phenylalanine, and 1/3 Nlys, the peptoid analog of lysine (see FIG. 1 for the structures of representative peptoid monomers and corresponding N-substituents). Peptoid 2 [H-(Nlys-Nssb-Nspe)4—NH2] contains 1/3 isoleucine-like Nssb monomers in place of Nspe. The variant sequences were designed to effect changes in chirality, length, hydrophobicity, charge, and amphipathicity. All of these compounds were tested for antibacterial activity against representative BSL1 Gram-negative (E. coli JM109) and Gram-positive (B. subtilis BR151) bacterial strains. As an initial measure of selectivity, the lytic activity of the peptoids was determined against human erythrocytes. Table 1 summarizes the sequences synthesized, the solvent composition at RP-HPLC elution as a relative measure of molecular hydrophobicity, and antibacterial and hemolytic activities.
Antibacterial assays. MICs were determined according to CLSI M7-A6 protocols in a 96-well microtiter plate. […]

With `CC(C)[C@H](C)N(CC(=O)N(CC(=O)N(CCCCN)CC(=O)N(CC(=O)N(CC(=O)N(CCCCN)CC(=O)N(CC(=O)N(CC(=O)N(CCCCN)CC(=O)N(CC(=O)N(CC(N)=O)[C@@H](C)c1ccccc1)[C@@H](C)C(C)C)[C@@H](C)c1ccccc1)[C@@H](C)C(C)C)[C@@H](C)c1ccccc1)[C@@H](C)C(C)C)[C@@H](C)c1ccccc1)C(=O)CNCCCCN` [1-Nsdp2,5,8,11, H-(Nlys-Nsdp-Nspe)4-NH2] (H-[Nlys][X1][Nspe][Nlys][X1][Nspe][Nlys][X1][Nspe][Nlys][X1][Nspe]-NH2) the “Selectivity ratio (SR) S. aureus NRS100 (COL)” value [1] was 23, the “Selectivity ratio (SR) E. aerogenes ATCC 35029” value [2] was 5.8 and the “Selectivity ratio (SR) S. aureus NRS120” value [3] was 23. For the same compound, the “Selectivity ratio (SR) P. aeruginosa ATCC 27853” value [4] was 12, the “Selectivity ratio (SR) S. aureus NRS119” value [5] was 12 and the “Selectivity ratio (SR) S. aureus VAN1” value [6] was 23. The “Selectivity ratio (SR) E. faecalis ATCC 29212” value [7] was 23, the “Selectivity ratio (SR) S. aureus ATCC 29213” value [8] was 23 and the “Selectivity ratio (SR) E. faecalis 99” value [9] was 2.9. The “Selectivity ratio (SR) P. vulgaris ATCC 49132” value [10] was 5.8, the “Selectivity ratio (SR) E. faecium 106” value [11] was 46 and the “Selectivity ratio (SR) E. coli ATCC 25922” value [12] was 23. For the same compound, the “Selectivity ratio (SR) K. pneumoniae ATCC 33495” value [13] was 23, the “Selectivity ratio (SR) P. mirabilis ATCC 35659” value [14] was less than 1.5 and the “Selectivity ratio (SR) S. marcescens ATCC 13880” value [15] was less than 1.5. The “Selectivity ratio (SR) S. aureus VAN2” value [16] was 23, the “Selectivity ratio SRE. coli” value [17] was greater than 9.7 and the “Selectivity ratio SRE. coli” value ([17]; listed as 1-Nspd2,5,8,11) was 9.7. For the same compound, the “Selectivity ratio SRB. subtilis” value [18] was 142.

With `CC(C)[C@H](C)N(CC(N)=O)C(=O)CN(C(=O)CN(CCCCN)C(=O)CN(C(=O)CN(C(=O)CN(CCCCN)C(=O)CN(C(=O)CN(C(=O)CN(CCCCN)C(=O)CN(C(=O)CN(C(=O)CNCCCCN)[C@@H](C)C(C)C)[C@@H](C)C(C)C)[C@@H](C)C(C)C)[C@@H](C)C(C)C)[C@@H](C)C(C)C)[C@@H](C)C(C)C)[C@@H](C)C(C)C` [1-Nsdpall, H-(Nlys-Nsdp-Nsdp)4-NH2] the “Selectivity ratio SRE. coli” value [17] was greater than 8 and the “Selectivity ratio SRB. subtilis” value [18] was 256.

For `NCCCCNCC(=O)N(CC(=O)N(CC(=O)N(CCCCN)CC(=O)N(CC(=O)N(CC(=O)N(CCCCN)CC(=O)N(CC(=O)N(CC(=O)N(CCCCN)CC(=O)N(CC(=O)N(CC(N)=O)Cc1ccccc1)Cc1ccccc1)Cc1ccccc1)Cc1ccccc1)Cc1ccccc1)Cc1ccccc1)Cc1ccccc1)Cc1ccccc1` [1achiral, H-(Nlys-Npm-Npm)4-NH2] (H-[Nlys][Nphe][Nphe][Nlys][Nphe][Nphe][Nlys][Nphe][Nphe][Nlys][Nphe][Nphe]-NH2), the “Selectivity ratio (SR) S. aureus NRS100 (COL)” value [1] was 39, the “Selectivity ratio (SR) E. aerogenes ATCC 35029” value [2] was 2.4 and the “Selectivity ratio (SR) S. aureus NRS120” value [3] was 19. For the same compound, the “Selectivity ratio (SR) P. aeruginosa ATCC 27853” value [4] was 19, the “Selectivity ratio (SR) S. aureus NRS119” value [5] was 19 and the “Selectivity ratio (SR) S. aureus VAN1” value [6] was 39. For the same compound, the “Selectivity ratio (SR) E. faecalis ATCC 29212” value [7] was 19, the “Selectivity ratio (SR) S. aureus ATCC 29213” value [8] was 39 and the “Selectivity ratio (SR) E. faecalis 99” value [9] was 4.9. The “Selectivity ratio (SR) P. vulgaris ATCC 49132” value [10] was 9.8, the “Selectivity ratio (SR) E. faecium 106” value [11] was 79 and the “Selectivity ratio (SR) E. coli ATCC 25922” value [12] was 19. For the same compound, the “Selectivity ratio (SR) K. pneumoniae ATCC 33495” value [13] was 39, the “Selectivity ratio (SR) P. mirabilis ATCC 35659” value [14] was less than 2.4 and the “Selectivity ratio (SR) S. marcescens ATCC 13880” value [15] was 2.4. For the same compound, the “Selectivity ratio (SR) S. aureus VAN2” value [16] was 39, the “Selectivity ratio SRE. coli” value [17] was 15 and the “Selectivity ratio SRB. subtilis” value [18] was 235.

For `CCC[C@H](C)N(CC(=O)N(CC(N)=O)[C@@H](C)c1ccccc1)C(=O)CN(CCCCN)C(=O)CN(C(=O)CN(C(=O)CN(CCCCN)C(=O)CN(C(=O)CN(C(=O)CN(CCCCN)C(=O)CN(C(=O)CN(C(=O)CNCCCCN)[C@@H](C)CCC)[C@@H](C)c1ccccc1)[C@@H](C)CCC)[C@@H](C)c1ccccc1)[C@@H](C)CCC)[C@@H](C)c1ccccc1` [2-Nsap2,5,8,11] (H-[Nlys][X2][Nspe][Nlys][X2][Nspe][Nlys][X2][Nspe][Nlys][X2][Nspe]-NH2), the “Selectivity ratio, SR = (HD10)/(E. coli MIC)” value [19] was 16 and >16.
